In article PMC11699347, “Heme regulates protein interactions and phosphorylation of BACH2 intrinsically disordered region in humoral response” (iScience, 2024):
These are yes or no findings as the source states them, for the method shown. In cells and extracts the contact can be indirect. Here binding means that the protein was enriched with, or labelled near, the bait; the list need not be complete. Blank lines part the entries; values can stand above or below the binder they belong to.

The chains behind the UniProt entries cited, without tags or fusion partners. Residues count along the entry.
UniProt P97303, residues 331-520: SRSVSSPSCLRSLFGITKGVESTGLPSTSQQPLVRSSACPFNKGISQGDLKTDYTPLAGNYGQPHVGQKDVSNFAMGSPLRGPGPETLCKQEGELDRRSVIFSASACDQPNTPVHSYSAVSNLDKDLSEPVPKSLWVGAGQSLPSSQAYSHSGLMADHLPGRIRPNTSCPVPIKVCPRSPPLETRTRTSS

Target: FLAG-HA-BACH2-IDR (mouse) (UniProt P97303)
Assay: affinity purification with mass spectrometry; ReCLIP: in-cell cross-linking (DSP, DTME) of BAL17 cells stably expressing FLAG-HA-BACH2-IDR, RIPA lysate, FLAG-M2 agarose, FLAG peptide elution, cross-links reversed with DTT, LC-MS/MS; compared with mock-infected cells

- binding: binds
B1: Ubiquitin carboxyl-terminal hydrolase 19 (protein, UniProt Q3UJD6 1-1360)
chain: MSAGASATGPRRGPPGLEEATSKKKQKDRANLESKDGDARRVSLPRKEPTKDELLLDWRQSADEVIVKLRVGTGPVRLEDVDAAFTDTDCVVRLPDGRQWGGVFFAEIQSSCTKVQARKGGLLQLVLPKKVPLLTWPSLLKPLGTQELVPGLQCQENGQELSPIALEPGSEPRRAKQEARNQKRAQGRGEVGSGAGPGTQAGPSAKRAVHLRRGPEGEGSMDGPGPQGDAPSFLSDSATQVEAEEKLCAPPMNTQTSLLSSEKSLALLTVEKTVSPRNDPVAPVMVQDRDPEPEQEDQVKEEMALGADPTALVEEPESMVNLAFVKNDSYEKGPDSVVVHVYVKEIRRDSSRVLFREQDFTLIFQTRDGNFLRLHPGCGPHTIFRWQVKLRNLIEPEQCTFCFTASRIDICLRKRQSQRWGGLEAPATRGAVGGAKVAVPTGPTPLDSTPPGGGPHPLTGQEEARAVEKEKPKARSEDSGLDGVVARTPLEHVAPKPDPHLASPKPTCMVPPMPHSPVSGDSVEEDEEEEKKVCLPGFTGLVNLGNTCFMNSVIQSLSNTRELRDFFHDRSFEAEINYNNPLGTGGRLAIGFAVLLRALWKGTHQAFQPSKLKAIVASKASQFTGYAQHDAQEFMAFLLDGLHEDLNRIQNKPYTETVDSDGRPDEVVAEEAWQRHKMRNDSFIVDLFQGQYKSKLVCPVCAKVSITFDPFLYLPVPLPQKQKVLPIFYFAREPHSKPIKFLVSVSKENSSASEVLDSLSQSVHVKPENLRLAEVIKNRFHRVFLPSHSLDAVSPTDVLLCFELLSPELAKERVVVLEVQQRPQVPSIPISKCAACQRKQQSEEEKLKRCTRCYRVGYCNQFCQKTHWPDHKGLCRPENIGYPFLVSVPASRLTYARLAQLLEGYARYSVSVFQPPFQPGRMALESQSPGCTTLLSTSSLEAGDSEREPIQPSELQLVTPVAEGDTGAHRVWPPADRGPVPSTSGLSSEMLASGPIEGCPLLAGERVSRPEAAVPGYQHSSESVNTHTPQFFIYKIDASNREQRLEDKGETPLELGDDCSLALVWRNNERLQEFVLVASKELECAEDPGSAGEAARAGHFTLDQCLNLFTRPEVLAPEEAWYCPQCKQHREASKQLLLWRLPNVLIVQLKRFSFRSFIWRDKINDLVEFPVRNLDLSKFCIGQKEEQLPSYDLYAVINHYGGMIGGHYTACARLPNDRSSQRSDVGWRLFDDSTVTTVDESQVVTRYAYVLFYRRRNSPVERPPRASHSEHHPDLGPAAEAAASQASRIWQELEAEEEMVPEGPGPLGPWGPQDWVGPPPRGPTTPDEGCLRYFVLGTVAALVALVLNVFYPLVSQSRWR

- binding: binds
B2: Chromosome-associated kinesin KIF4 (protein, UniProt P33174 1-1231)
chain: MKEEVKGIPVRVALRCRPLVSKEIKEGCQTCLSFVPGEPQVVVGNDKSFTYDFVFDPSTEQEEVFNTAVAPLIKGVFKGYNATVLAYGQTGSGKTYSMGGAYTAEQEHDSAIGVIPRVIQLLFKEINKKSDFEFTLKVSYLEIYNEEILDLLCSSREKATQINIREDPKEGIKIVGLTEKTVLVASDTVSCLEQGNNSRTVASTAMNSQSSRSHAIFTISIEQRKKNDKNSSFRSKLHLVDLAGSERQKKTKAEGDRLREGININRGLLCLGNVISALGDDKKGNFVPYRDSKLTRLLQDSLGGNSHTLMIACVSPADSNLEETLNTLRYADRARKIKNKPIINIDPQAAELNHLKQQVQQLQILLLQAHGGTLPGDINVEPSENLQSLMEKNQSLVEENEKLSRGLSEAAGQTAQMLERIILTEQANEKMNAKLEELRRHAACKVDLQKLVETLEDQELKENIEIICNLQQVIAQLSDEAAACMTATIDTAGEADTQVQSSPDTSRSSDVFSTQHALRQAQMSKELIELNKALALKEALAKKMTQNDNQLQPIQFQYQDNIKNLESEVLSLQREKEELVLELQTAKKDANQAKLSERRRKRLQELEGQIADLKKKLQEQSKLLKLKESTEHTVSKLNQEIRMMKNQRVQLMRQMKEDAEKFRQWKQQKDKEVIQLKERDRKRQYELLKLERNFQKQSNVLRRKTEEAAAANKRLKDALQKQKEVAEKRKETQSRGMESTAARMKNWLGNEIEVMVSTEEAKRHLNGLLEERKILAQDVAQLKEKRESGENPPLKLRRRTFSYDEIHGQDSGAEDSIAKQIESLETELELRSAQIADLQQKLLDAESEDRPKQRWESIATILEAKCAIKYLVGELVSSKILVSKLESSLNQSKASCIDVQKMLFEEQNHFAKIETELKEELVKVEQQHQEKVLYLLSQLQQSQMTEKQLEESVSEKEQQLLSTLKCQEEELRKMQEVCEQNQQLLQENSAIKQKLTLLQVASKQKPHLTRNIFQSPDSSFEYIPPKPKPCRIKEKCLEQSFAVEGLQYYSEPSVAEQDNEDSDDHADEEWIPTKLVKVSKKSIQGCSCKGWCGNKQCGCRKQKSDCNVSCSCDPTKCRNRHQNQDNSDAIELNQDSENSFKLEDPTEVTSGLSFFHPICATPSSKILKEMCDADQVQLKQPVFVSSSDHPELKSIASESQENKAIGKKKKRALASNTSFFSGCSPIQEESH
